Literature values in US20250090522A1 (priority 2021, published 2025).

Details: in vivo

O=C(O)COCCN1CCN([C@H](c2ccccc2)c2ccc(Cl)cc2)CC1 [Levocetirizine]
time to peak plasma level: 0.9 h
